# From publication PMC4805545
# Sequences of proteins named here, by UniProt entry; tags and fusion partners are left off. Residues count along the entry.
# UniProt P11046, residues 25-1788: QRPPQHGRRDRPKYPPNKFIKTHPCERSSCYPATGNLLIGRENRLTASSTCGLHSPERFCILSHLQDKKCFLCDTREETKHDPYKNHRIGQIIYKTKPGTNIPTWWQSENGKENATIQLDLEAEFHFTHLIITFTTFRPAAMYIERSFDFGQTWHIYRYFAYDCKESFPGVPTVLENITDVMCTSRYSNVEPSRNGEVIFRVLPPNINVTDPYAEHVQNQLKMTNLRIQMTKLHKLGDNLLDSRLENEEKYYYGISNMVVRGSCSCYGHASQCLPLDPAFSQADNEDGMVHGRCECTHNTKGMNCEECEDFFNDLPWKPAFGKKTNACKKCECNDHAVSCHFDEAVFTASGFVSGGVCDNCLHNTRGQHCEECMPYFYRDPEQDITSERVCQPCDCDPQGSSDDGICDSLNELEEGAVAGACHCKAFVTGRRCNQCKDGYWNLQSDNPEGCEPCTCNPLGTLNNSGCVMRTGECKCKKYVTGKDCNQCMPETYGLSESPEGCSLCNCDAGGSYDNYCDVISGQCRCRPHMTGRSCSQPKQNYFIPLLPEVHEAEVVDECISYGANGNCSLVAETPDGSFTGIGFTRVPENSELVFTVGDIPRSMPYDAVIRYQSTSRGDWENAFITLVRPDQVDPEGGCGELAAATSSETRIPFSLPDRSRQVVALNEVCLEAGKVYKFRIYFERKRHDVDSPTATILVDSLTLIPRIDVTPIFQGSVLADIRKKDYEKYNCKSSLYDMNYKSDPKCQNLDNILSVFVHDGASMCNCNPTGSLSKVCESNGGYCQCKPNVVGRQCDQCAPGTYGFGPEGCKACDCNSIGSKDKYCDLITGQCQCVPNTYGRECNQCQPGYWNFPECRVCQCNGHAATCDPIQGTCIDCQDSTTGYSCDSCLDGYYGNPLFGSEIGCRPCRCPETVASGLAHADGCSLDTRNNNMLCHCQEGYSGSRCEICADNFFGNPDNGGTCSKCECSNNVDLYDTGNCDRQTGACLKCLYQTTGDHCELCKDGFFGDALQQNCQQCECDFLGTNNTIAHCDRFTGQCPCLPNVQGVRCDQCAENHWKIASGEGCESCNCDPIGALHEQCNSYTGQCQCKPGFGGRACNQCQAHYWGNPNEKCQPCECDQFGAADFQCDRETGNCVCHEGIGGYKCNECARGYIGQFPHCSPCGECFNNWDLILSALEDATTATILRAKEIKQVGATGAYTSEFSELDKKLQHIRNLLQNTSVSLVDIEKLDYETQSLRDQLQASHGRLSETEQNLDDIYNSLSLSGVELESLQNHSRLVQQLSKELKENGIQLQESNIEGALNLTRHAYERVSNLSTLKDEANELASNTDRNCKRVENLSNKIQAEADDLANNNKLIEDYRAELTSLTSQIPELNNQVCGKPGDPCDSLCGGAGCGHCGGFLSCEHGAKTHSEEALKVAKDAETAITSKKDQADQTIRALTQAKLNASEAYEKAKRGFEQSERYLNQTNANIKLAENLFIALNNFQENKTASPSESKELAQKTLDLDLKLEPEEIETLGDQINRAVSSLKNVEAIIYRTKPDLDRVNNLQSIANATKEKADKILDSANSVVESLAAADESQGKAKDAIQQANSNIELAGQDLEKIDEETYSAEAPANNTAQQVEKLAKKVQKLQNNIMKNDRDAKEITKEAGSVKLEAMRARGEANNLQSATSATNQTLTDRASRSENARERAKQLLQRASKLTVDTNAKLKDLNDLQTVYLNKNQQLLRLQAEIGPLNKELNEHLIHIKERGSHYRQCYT
# UniProt Q00174, residues 23-3712: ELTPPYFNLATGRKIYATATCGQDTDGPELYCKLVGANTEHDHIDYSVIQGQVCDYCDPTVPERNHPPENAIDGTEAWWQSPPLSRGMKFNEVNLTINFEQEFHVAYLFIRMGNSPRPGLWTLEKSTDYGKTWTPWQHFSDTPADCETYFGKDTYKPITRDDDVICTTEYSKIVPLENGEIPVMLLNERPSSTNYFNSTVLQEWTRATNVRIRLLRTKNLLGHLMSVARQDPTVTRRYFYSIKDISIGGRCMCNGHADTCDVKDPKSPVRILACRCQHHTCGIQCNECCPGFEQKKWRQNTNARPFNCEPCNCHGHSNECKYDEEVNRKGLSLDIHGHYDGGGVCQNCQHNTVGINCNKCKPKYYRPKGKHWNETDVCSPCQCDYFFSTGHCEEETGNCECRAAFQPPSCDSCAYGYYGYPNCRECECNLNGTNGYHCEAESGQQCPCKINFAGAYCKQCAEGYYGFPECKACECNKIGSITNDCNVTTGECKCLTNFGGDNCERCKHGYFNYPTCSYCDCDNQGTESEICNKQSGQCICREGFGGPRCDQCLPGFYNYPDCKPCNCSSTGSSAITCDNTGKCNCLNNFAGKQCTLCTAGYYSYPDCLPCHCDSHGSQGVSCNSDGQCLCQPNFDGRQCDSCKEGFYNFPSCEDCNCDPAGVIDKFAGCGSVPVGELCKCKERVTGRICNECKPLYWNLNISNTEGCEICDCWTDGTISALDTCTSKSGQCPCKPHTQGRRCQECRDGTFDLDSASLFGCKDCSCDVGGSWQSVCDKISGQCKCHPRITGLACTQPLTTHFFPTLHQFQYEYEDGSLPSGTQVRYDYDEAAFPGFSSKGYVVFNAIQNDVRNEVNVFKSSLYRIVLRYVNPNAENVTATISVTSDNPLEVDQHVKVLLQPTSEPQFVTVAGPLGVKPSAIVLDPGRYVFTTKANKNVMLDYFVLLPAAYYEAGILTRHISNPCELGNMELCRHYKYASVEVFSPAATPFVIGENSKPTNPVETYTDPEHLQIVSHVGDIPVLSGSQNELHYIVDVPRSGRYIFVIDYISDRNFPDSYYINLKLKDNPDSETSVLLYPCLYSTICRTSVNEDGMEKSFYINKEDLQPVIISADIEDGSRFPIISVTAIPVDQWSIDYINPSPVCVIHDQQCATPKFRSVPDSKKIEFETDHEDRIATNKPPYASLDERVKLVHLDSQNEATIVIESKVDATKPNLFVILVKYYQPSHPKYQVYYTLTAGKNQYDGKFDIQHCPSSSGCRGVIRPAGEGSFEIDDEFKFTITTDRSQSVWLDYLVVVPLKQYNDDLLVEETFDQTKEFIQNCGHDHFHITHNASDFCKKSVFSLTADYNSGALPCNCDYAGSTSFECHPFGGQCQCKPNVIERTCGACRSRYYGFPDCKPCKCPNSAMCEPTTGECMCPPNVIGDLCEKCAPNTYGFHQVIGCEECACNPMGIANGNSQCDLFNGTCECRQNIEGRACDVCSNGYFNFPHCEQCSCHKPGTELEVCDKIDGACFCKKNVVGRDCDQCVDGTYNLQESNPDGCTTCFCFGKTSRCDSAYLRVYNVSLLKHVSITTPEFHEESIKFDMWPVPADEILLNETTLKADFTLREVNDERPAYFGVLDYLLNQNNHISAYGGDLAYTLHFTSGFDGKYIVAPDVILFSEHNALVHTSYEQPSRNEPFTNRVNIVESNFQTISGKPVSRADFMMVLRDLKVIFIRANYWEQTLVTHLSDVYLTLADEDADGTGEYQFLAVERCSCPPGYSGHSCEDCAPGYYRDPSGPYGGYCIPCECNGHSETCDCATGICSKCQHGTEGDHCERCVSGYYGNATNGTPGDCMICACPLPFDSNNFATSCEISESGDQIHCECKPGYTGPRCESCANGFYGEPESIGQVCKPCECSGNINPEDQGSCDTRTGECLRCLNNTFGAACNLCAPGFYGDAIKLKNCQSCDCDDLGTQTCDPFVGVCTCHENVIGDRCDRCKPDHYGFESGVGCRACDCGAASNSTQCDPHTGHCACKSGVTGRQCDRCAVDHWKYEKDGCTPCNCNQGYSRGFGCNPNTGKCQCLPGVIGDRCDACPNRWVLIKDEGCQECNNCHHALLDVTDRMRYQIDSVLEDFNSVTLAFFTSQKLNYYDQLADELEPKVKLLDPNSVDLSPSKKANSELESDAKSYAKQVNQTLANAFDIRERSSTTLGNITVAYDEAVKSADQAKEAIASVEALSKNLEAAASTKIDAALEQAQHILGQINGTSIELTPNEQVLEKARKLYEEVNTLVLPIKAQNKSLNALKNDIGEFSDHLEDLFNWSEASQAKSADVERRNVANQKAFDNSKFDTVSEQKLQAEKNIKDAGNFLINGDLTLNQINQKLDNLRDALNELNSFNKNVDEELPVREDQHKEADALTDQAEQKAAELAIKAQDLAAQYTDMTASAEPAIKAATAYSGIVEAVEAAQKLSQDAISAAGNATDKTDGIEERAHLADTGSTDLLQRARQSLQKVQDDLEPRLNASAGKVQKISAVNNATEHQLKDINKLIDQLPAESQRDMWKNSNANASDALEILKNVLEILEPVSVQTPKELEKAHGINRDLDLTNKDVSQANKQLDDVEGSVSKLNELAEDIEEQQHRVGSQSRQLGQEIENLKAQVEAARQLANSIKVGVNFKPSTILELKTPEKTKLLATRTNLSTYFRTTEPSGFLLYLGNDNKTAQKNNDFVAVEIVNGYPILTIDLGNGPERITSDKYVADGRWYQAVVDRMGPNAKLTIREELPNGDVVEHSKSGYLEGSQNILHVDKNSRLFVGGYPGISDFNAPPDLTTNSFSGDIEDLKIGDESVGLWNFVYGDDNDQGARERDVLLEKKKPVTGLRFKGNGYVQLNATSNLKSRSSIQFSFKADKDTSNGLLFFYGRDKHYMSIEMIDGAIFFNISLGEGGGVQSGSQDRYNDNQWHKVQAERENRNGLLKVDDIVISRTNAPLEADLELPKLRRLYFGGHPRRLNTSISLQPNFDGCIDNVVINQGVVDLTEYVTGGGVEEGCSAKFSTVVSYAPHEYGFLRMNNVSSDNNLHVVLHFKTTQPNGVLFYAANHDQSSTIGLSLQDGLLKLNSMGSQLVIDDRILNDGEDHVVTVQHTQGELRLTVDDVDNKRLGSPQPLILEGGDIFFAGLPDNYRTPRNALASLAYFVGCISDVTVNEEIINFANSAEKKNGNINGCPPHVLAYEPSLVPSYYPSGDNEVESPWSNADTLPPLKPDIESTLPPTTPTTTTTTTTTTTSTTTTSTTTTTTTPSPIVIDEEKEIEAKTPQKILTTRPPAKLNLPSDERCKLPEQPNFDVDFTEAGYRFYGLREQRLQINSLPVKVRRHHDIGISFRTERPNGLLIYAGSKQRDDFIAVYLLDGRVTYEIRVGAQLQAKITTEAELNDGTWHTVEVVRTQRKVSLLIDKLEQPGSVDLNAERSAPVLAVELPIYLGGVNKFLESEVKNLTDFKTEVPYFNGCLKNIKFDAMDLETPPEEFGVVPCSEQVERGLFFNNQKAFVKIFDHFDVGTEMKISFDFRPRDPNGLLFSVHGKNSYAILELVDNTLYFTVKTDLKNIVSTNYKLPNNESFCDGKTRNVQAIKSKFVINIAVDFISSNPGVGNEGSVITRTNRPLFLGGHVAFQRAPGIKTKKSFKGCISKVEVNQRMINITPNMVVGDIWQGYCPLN
# These are yes or no findings as the source states them, for the method shown. In cells and extracts the contact can be indirect. Here binding means that the protein was enriched with, or labelled near, the bait; the list need not be complete. For part of these data: Sequences can lack the tags named with a protein.
# T1: discs large 1 (Dlg1), GFP-tagged (Drosophila melanogaster) (UniProt P31007)
# T1 sequence: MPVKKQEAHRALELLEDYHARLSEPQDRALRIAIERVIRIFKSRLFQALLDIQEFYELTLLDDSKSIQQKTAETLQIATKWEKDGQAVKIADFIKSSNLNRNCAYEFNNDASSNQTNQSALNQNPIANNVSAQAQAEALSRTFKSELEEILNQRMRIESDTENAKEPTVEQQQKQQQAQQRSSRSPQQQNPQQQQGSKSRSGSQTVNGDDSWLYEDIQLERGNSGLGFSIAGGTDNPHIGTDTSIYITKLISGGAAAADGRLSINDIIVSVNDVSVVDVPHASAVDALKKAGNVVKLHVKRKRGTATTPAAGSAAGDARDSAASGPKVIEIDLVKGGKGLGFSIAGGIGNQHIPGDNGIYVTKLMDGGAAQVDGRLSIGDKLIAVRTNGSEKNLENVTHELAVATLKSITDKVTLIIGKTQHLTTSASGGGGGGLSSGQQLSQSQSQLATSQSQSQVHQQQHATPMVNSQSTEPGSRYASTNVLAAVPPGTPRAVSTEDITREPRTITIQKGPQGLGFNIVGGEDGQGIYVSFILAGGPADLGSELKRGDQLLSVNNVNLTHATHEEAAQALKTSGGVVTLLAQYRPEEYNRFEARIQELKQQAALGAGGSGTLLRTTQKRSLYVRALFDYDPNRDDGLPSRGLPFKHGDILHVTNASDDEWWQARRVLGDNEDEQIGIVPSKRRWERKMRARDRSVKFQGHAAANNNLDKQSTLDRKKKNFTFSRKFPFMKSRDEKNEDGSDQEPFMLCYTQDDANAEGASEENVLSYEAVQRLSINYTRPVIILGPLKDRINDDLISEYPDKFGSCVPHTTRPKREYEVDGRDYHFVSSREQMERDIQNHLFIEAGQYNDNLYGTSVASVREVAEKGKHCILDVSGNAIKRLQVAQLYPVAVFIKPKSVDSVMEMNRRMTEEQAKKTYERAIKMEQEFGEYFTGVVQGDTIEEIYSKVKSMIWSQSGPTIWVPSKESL
# Experiments:
# [1] = molecular target: LamininB1 (LanB1), GFP-tagged (Drosophila melanogaster) (UniProt P11046); assay: affinity purification with mass spectrometry; single step affinity enrichment of the GFP-tagged bait on magnetic beads pre-coupled to anti-GFP antibodies from cleared lysate of about hundred 24 to 48 hr pupae or hundred adult flies; triplicates; in-column tryptic digestion; label-free quantification (MaxLFQ); wild-type fly strain as control
# [2] = molecular target: T1, discs large 1 (Dlg1), GFP-tagged (Drosophila melanogaster); assay: as above
Molecule,binding [1],binding [2]
LanB2 (from UniProt P15215 34-1639),binds,–
LamininA (LanA) (from UniProt Q00174 23-3712),binds,–
"Mesh (protein, UniProt Q0KHY3 22-1454) NENISTEEFEDQIINAVPEPVKVTKPKAQAEFVEVPKATPAPKKAEADNPKTKPLALQKPTLIPVVHVSSRGTDDILTVAGLKPEKMFGALIMPNDYLGELYDVDNSGYNWDPNNNVAPPTTYSTAAGGYTITAARLAELRSNFMYWYFDKDMYGGRGDYQFDIHASMTQLHKNLNFQLPFYGFRFNYTRLSLNGYLEFSDPPEYLTYPLVFPIKDWPAKRDPSFMGIFFSKCRVGRIYPSDIDQRTPGVYFRVERDLMGRTDRFGVEVRERTMWDIRQGVVGADTFIPKHVVIATWKNVSFAGGIDNSLYTTNTFQMVLATDEVYTYIIFNYAVLNWLSHTEAGGDTTKGEGGVPAYVGFNAGNGTQAYEYNPYSQNMVIRDLANRGWANGFPGRHIFRVDEQILIGSCNKDIDAALLPLTFAPESGNMLGGQVVNITGPCFDPAIRVTCHFDTESVLGTYVDRNRVICVQPYLKAEGYIRFQISVGTQRFKWRGKYFVETPAAATEKIFFTTDDVHKKNPAEIRITWNQYNLTSNANANVMISLWGYRETKIEPQLEYIDVIEASYSNSGSYVITPSNYINRNNINRDMQFGFLQINLTQPDQYSGLAISPVLWSRPIPLAWYMAPQWERQHGKRWARALCDNWIRADRFLRNFAADLPLCPCTLDQAVLDKGRFRPDRECDKDSNPSCLRHRGAIHCVVSGTPVAQGAEQQCCYDRYGFLMLTYDQMWGSRPRRVHNLGKMPWNEASKVPSLSMWFHDMRPFYSCCYWQEEQAVGCETYRFERRPSQDCVAYQAPGIAGVFGDPHFVTFDGTAYTFNGLGEFVLARSVDESNKFEVQGRFEQLPVNYYGEVKATQLTAVAMRGNTTTTIEVRLRPLHARWRYRLDVLADGRRVYFDRESLKFQHFDGVTVYTPTYLLNQSQVVVQFDAGIGVEVVENEGYMTGRVFLPWKFINKTAGLFGNWSFNKLDDFMLPNGQVAQLNLNDLRSIHTNFGIKWMLTDREVPGVGAALFKREFGRMSGYYANATFQPNYVLDPADFLPANRSYDLERAEELCGECMQCQYDYAMTLNRDLAHFTKNYYDTIVNMQAENAVRVVSCGVLQTPRFGRKLSFDFMPGAKVSFECNEGFILIGDQRRECLSNGLWNIPEYGYTECLREVYYTRRVAFIAIGIIFLVICPLMLCIVCGVYRYRQKQLKEDPQWQMPMLPRSRASSARNLRTLNYDDDSDTDASTLKKSRSYDKVYRTNEPLPGKPQIDFPAKKWDLDENDEDVTSSEGEKPKQLGRRSLHSASGTELDQHGSPVDGDHPDEDDDFDEADVHTGTTHPVGYHQPLSPEEADQLHRQQYSPTFSGLDSRTSGASSINYTPQAATQNRFGGVPVLPSNTQYYSRPPSSVNTVPLRTAPTPLTQDTGLPSPPLATSPTPSVQKSTEV",–,binds
